Measurements taken from patent US8378071B2, “Peptide epitopes of VEGFR-2/KDR that inhibit angiogenesis” (The United States of America as Represented by the …, priority 2005, dated 2013).
Some entries share one result that the patent states for a list of compounds.

System: IFN-γ secreting spleen cells / DLN cells
Assay: IFN-γ Elispot assay on splenocytes or draining lymph node cells of peptide-vaccinated mice
Assay type: in vivo, C57BL/6 mice
Details: spleen cells restimulated 1 week in vitro, FIG. 2B
Excerpt: FIGS. 2A-C are bar graphs representing the results of IFN-Eli spot assays. Four groups of mice (5 mice per group) were vaccinated with different peptides (KDR1, KDR2, KDR3). Mice were sacrificed, spleen or drained lymph nodes (DLN) cells prepared as described in methods section served as effectors. Syngeneic EL4 cells (3,000 rads) pulsed with peptides or H5V cells after treated with MMC served as stimulators. Irradiated EL4 without peptide or MMC treated allogeneic bEND3 cells as control. Dot bar: EL4 pulsed with irrelevant peptide as negative control; Solid bar: EL4 pulsed with KDR2 or KDR3 respectively; Open bar: EL4 without any peptide; A. Results of fresh spleen cells; B. Results of spleen cells after 1 week restimulation in vitro; C. Cells from fresh drained lymph nodes stimulated with H5V or bEND3 cells.
Mice were immunized with selected peptide, together with murine GM-CSF and anti-mouse CD40 as adjuvants. An emulsion containing 50 μl Incomplete Freud's Adjuvants (IFA, Sigma) with or without 100 […] of peptide and 5 μg murine GM-CSF (Pepro Tech), 20 μg anti-murine CD40 monoclonal antibody (Southern Biotech, Clone number 1C10) was prepared in a final volume of 100 μl. Subcutaneous injections were performed on the tails of the mice with 1 ml syringes and 30 gauge needles. For the Matrigel Plug Assay, two boosts were injected at 4 week intervals. […]

Row | Sequence | IFN-γ secreting cells relative to background after 1 week in vitro culture with the vaccinated peptide
1 | FSNSTNDILI [KDR3, murine VEGFR-2/KDR peptide, location 615-624] | 10-20 times
2 | VILTNPISM [KDR2, murine VEGFR-2/KDR peptide, location 400-408] | 10-20 times
